Measurements reported in the supplement of paper PMC10849652.
This is one part of the list.

Protein sequences, listed by entry. Tags and fused reporters are not part of them. Lines headed by an entry give the natural chain unless they say otherwise; changes in a name come on top.
UniProt Q9H977: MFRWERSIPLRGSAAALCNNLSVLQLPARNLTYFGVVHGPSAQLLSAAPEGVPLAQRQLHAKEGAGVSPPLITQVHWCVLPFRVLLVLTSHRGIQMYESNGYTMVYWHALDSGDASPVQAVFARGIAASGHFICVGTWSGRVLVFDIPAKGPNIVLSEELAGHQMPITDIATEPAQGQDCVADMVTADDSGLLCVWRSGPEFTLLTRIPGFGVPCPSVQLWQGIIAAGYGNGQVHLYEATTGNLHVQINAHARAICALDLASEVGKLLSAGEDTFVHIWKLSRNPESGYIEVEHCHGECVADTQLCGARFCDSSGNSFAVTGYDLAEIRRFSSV
UniProt Q92558: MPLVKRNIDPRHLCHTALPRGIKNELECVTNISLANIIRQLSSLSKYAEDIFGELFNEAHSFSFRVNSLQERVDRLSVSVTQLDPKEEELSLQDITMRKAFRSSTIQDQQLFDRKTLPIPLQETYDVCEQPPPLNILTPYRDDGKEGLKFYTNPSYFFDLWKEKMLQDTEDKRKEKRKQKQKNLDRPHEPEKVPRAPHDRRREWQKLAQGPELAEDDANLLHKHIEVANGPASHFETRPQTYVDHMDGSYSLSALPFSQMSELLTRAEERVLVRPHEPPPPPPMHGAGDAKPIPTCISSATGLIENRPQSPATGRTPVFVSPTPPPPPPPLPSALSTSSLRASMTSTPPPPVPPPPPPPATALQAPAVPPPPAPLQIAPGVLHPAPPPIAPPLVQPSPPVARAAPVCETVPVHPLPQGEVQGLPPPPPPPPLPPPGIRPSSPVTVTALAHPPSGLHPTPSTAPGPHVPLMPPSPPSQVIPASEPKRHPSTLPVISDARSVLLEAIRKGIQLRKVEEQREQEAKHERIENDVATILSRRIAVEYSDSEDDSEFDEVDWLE
UniProt O00258: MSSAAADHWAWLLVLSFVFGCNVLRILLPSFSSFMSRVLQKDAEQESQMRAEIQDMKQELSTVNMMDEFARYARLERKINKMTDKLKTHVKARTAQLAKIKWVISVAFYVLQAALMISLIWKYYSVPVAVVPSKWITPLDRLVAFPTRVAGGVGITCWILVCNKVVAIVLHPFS
UniProt Q5THJ4: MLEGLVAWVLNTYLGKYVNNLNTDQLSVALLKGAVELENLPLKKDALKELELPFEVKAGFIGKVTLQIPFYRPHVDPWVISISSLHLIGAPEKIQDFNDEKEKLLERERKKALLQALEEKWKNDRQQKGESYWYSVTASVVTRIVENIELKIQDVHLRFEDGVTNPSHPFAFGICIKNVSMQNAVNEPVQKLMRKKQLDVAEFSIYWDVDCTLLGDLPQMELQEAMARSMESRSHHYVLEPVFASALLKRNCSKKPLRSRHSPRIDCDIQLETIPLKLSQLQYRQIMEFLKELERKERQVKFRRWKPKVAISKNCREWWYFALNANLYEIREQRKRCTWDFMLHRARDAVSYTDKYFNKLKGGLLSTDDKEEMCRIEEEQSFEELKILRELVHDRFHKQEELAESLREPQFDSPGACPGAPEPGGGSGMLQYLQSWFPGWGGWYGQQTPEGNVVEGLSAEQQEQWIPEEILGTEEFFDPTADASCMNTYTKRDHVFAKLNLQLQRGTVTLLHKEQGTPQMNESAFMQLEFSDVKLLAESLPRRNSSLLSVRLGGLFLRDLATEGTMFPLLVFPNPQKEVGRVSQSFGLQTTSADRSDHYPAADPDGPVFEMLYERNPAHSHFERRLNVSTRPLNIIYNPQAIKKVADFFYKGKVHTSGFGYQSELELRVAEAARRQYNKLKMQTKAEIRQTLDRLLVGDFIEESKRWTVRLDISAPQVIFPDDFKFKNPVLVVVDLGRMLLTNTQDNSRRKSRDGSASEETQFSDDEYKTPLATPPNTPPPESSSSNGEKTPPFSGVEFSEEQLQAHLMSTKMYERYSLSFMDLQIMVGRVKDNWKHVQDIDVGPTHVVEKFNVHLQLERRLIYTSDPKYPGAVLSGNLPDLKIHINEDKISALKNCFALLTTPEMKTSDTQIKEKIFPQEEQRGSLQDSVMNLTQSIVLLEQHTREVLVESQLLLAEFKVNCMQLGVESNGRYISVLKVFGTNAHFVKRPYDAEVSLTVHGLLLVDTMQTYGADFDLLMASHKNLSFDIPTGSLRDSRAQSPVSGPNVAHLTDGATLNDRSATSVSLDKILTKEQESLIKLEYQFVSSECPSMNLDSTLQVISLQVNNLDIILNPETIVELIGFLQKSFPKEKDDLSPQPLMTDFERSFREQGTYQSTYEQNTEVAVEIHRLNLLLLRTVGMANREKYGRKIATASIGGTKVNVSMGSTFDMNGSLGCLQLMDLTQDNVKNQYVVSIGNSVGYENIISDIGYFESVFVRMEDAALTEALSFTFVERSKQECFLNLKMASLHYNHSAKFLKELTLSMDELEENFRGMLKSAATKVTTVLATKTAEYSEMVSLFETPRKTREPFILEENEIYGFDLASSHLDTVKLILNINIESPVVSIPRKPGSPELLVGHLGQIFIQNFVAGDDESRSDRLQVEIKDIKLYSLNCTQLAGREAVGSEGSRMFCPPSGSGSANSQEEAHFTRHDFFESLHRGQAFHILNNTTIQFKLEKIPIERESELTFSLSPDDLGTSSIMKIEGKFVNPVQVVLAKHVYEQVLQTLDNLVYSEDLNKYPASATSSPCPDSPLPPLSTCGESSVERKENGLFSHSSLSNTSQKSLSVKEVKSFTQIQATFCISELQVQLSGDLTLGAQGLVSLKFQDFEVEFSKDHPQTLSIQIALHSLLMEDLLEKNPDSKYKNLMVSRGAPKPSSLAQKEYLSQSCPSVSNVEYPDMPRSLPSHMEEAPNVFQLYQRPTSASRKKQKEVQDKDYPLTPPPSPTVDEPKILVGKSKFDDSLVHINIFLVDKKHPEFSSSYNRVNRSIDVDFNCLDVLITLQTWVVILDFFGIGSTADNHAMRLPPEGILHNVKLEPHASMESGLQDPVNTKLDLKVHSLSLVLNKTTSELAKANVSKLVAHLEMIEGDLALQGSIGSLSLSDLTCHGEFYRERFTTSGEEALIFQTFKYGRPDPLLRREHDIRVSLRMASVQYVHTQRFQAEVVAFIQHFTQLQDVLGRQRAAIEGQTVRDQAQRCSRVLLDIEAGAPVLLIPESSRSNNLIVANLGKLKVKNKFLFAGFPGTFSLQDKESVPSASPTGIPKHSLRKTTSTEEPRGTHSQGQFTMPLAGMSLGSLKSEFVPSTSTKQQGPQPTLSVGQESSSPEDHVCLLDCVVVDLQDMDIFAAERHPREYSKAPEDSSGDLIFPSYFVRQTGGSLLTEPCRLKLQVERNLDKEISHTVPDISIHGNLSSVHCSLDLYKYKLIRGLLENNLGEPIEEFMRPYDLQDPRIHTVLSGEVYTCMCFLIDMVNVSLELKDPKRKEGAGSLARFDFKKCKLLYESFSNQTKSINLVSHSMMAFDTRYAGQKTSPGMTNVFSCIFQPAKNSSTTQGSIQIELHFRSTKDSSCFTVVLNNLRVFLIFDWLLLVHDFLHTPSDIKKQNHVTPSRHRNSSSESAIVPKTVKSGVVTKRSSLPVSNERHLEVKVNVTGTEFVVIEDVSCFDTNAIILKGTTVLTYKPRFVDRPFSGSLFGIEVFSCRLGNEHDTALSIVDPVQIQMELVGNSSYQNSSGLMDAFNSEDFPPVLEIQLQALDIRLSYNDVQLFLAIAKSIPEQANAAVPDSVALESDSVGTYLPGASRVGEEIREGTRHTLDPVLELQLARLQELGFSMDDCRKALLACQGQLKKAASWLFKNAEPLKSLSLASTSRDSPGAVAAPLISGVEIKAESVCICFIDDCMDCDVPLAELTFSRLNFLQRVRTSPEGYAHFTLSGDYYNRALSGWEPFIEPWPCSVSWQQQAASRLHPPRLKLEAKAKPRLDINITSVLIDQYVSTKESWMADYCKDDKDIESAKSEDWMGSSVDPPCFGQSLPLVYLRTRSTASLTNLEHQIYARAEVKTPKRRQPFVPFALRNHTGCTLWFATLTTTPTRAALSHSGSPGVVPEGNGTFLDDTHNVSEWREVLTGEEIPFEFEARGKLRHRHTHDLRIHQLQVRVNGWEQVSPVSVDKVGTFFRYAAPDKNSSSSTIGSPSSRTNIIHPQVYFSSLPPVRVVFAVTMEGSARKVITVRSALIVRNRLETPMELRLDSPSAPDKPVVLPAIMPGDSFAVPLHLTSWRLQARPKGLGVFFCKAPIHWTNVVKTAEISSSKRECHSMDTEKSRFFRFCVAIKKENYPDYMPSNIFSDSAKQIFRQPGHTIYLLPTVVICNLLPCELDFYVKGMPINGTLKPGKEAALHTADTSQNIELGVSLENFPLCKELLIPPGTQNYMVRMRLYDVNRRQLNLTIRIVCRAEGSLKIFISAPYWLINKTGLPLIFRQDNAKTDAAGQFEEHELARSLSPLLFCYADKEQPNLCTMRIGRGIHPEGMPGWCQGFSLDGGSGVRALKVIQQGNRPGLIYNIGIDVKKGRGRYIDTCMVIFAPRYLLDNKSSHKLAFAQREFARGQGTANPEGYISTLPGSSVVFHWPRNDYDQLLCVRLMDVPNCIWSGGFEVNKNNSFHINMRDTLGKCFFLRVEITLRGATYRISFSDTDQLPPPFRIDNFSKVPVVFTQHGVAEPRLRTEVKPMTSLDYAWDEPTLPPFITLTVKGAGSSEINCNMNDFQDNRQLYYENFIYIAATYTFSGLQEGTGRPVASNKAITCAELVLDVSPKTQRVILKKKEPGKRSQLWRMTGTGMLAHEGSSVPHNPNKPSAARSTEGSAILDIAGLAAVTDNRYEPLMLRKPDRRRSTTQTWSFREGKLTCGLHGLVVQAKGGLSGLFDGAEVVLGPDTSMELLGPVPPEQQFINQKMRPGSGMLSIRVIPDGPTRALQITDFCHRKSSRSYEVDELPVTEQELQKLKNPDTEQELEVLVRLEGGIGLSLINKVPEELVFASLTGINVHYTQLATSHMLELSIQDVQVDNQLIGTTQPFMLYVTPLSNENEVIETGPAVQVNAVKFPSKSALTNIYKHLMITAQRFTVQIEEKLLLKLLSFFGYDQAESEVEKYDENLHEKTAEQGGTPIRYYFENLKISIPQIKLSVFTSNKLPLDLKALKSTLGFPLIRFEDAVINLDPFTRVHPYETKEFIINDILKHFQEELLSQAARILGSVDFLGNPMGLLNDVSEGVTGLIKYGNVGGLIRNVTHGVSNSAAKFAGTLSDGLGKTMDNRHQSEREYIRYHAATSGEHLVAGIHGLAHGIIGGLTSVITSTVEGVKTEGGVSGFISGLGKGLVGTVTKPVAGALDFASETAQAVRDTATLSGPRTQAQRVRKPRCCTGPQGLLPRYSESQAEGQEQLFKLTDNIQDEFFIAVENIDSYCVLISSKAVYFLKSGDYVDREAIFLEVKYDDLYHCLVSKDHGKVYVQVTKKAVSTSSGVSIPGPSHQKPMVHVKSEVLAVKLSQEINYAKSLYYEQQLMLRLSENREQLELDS
UniProt Q96EX3: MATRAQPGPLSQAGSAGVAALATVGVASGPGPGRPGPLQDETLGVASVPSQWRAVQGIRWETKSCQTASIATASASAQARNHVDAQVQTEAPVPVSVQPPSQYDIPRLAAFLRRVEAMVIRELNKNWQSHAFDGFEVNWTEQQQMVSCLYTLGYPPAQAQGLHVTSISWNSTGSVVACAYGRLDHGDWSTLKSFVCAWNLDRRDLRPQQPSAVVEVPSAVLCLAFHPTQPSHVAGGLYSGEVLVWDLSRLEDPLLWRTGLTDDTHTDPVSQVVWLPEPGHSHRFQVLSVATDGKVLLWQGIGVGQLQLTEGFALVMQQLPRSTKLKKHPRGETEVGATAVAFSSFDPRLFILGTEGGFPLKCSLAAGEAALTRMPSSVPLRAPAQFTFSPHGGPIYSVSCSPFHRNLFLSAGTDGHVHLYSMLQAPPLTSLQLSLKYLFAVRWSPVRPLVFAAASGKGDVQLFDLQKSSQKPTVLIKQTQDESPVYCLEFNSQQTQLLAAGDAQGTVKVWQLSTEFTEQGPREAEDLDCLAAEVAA
UniProt Q9BRX9: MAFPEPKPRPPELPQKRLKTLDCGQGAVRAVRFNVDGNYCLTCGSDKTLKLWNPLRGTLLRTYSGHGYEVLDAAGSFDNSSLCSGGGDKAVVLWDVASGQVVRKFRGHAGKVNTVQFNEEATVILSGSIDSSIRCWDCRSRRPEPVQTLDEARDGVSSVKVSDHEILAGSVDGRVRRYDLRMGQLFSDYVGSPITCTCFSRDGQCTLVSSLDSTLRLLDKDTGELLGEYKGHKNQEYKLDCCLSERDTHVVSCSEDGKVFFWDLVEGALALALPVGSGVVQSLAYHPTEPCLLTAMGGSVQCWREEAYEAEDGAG

Columns and labels:
Assay in all cases: log2 fold change, soluble protein after heating vs DMSO (PISA); higher = thermal stabilisation; K562 lysate, 10 uM; active = over 0.2 and 3.5 SD of the protein, either way, in both replicates (recomputed)
[1] = compound: C1=CC=C(C=C1)[C@H](COC2=CC3=C(C=C2)NC(=O)N3)NC(=O)C4=CC=CN(C4=O)CC5=CC(=C(C=C5)F)F
Method in brief: (§1)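 K562 pellets were dounce-homogenised in PBS pH 7.4 with 1 mM MgCl2, and the crude extract at 1 mg/mL protein was treated with 10 μM compound for 30 min. Aliquots were heated for 3 min across 48°C-58°C, pooled, and brought to 0.5% NP-40 at 4°C; soluble protein was the supernatant after 21,000xg for 90 min. Soluble protein was quantified by TMTpro 16plex LC-MS/MS with channel sums equalised, and reported as log2 fold change in thermal stability against DMSO controls, with values from duplicates.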

[2] = compound: CC1=C(SC2=C1C(=N[C@H](C3=NN=C(N32)C)CC(=O)N)C4=CC=C(C=C4)Cl)C
Method in brief: as §1

[3] = compound: CC1=C2C(=CC=C1)N=C(N(C2=O)C3=CC=CC=C3C)CN4C=NC5=C(N=CN=C54)N
Method in brief: as §1

[4] = compound: Cc1sc2c(c1C)C(c1ccc(Cl)cc1)=N[C@@H](CC(=O)OC(C)(C)C)c1nnc(C)n1-2
Method in brief: as §1

[5] = compound: c1ccc([C@@H]2C[C@H]2NC2CCNCC2)cc1
Method in brief: as §1

Measured: log2 fold change

WDR54 isoform 4 (UniProt Q9H977)
inactive: [1] 0.023 | [2] 0.205 | [3] 0.083 | [4] 0.069 | [5] 0.062

WASF1 (UniProt Q92558)
inactive: [1] -0.004 | [2] 0.016 | [3] -0.086 | [4] -0.011 | [5] -0.092

XIRP2 isoform 8 (UniProt A4UGR9)
inactive: [1] 0.049 | [2] -0.034

WRB (UniProt O00258)
inactive: [1] 0.018 | [2] -0.021 | [3] -0.029 | [4] 0 | [5] -0.191

VPS13D (UniProt Q5THJ4)
inactive: [1] -0.093 | [2] -0.045 | [3] -0.054 | [4] -0.082 | [5] 0.052

WDR34 (UniProt Q96EX3)
inactive: [1] -0.044 | [2] 0.031 | [3] -0.007 | [4] -0.023 | [5] 0.029

Random excerpt: two entries already listed, in no set order.
WASF1 (UniProt Q92558)
inactive: [1] -0.004 | [2] 0.016 | [3] -0.086 | [4] -0.011 | [5] -0.092

XIRP2 isoform 8 (UniProt A4UGR9)
inactive: [1] 0.049 | [2] -0.034

(cont.)

VIRMA (UniProt Q69YN4)
inactive: [1] -0.055 | [2] 0.02 | [3] 0.015 | [4] -0.025 | [5] 0.005

WARS1 (UniProt G3V5U1)
inactive: [1] 0.198 | [2] -0.027

VPS8 (UniProt Q8N3P4)
inactive: [1] -0.046 | [2] 0.009 | [3] 0.034 | [4] -0.038 | [5] 0.01

WDR83 (UniProt Q9BRX9)
inactive: [1] 0.044 | [2] 0.082 | [3] -0.045 | [4] 0.055
